# Test results reported in US20230272485A1, “REPLICATION STRESS PATHWAY AGENT COMPOSITIONS AND METHODS FOR TREATING CANCER” (Boundless Bio, Inc., priority 2022, published 2023).
# At least one structure is not confirmed: it was looked up by name or label, or the drawing left a doubt.
# Tested on: sarcoma PDX model
# Experiment: sarcoma PDX model, tumor volume
# Assay type: in vivo, mice
# Conditions: monitored across 90+ days
structure (smiles),measurement,value
CC(=O)c1c(C)c2cnc(Nc3ccc(N4CCNCC4)cn3)nc2n(C2CCCC2)c1=O [Palbociclib],tumor volume,modest tumor growth inhibition
